The source of these data is the supplement of paper PMC8858631.

Where a name gives a salt, the structure may show the parent alone. This is one part of the list. No stated cut-off is given here; in the data, active = 0.5 or less and inactive = the rest. Repeats are few or missing, and single values can be far off.

This experiment has as its system SK-MEL-28. The experiment is described as follows: EEF2K protein level normalised to actin (western blot) after treatment (ratio (EEF2K/Actin)); higher = more EEF2K protein remaining (less EEF2K suppression). Conditions: 5 µM; 24 h. For orientation: In western blotting, separated proteins are transferred to a membrane and probed.
For the compound `O=C(O)CCCc1ccc(N(CCCl)CCCl)cc1` [Chloroambucil], the “EEF2K protein level normalised to actin” value is inactive: 1.81.

For the compound `C=CCN1C[C@H](C(=O)N(CCCN(C)C)C(=O)NCC)C[C@@H]2c3cccc4[nH]cc(c34)C[C@H]21` [Cabergoline], the “EEF2K protein level normalised to actin” value was inactive: 2.21.

As to `CC[C@@]1(O)C(=O)OCc2c1cc1n(c2=O)Cc2cc3ccccc3nc2-1` [Camptothecin], the “EEF2K protein level normalised to actin” value was active: 0.31.

With `N[C@@H](Cc1ccc(N(CCCl)CCCl)cc1)C(=O)O` [Melphalan], the “EEF2K protein level normalised to actin” value was inactive: 1.37.

`CC(C)[C@]12O[C@H]1[C@@H]1O[C@@]13[C@@]1(C)CCC4=C(COC4=O)[C@@H]1C[C@@H]1O[C@@]13C2=O` [Triptonide]: the “EEF2K protein level normalised to actin” value was inactive: 2.35.

Take `Cn1c(CCCC(=O)O)nc2cc(N(CCCl)CCCl)ccc21` [Bendamustine]: the “EEF2K protein level normalised to actin” value is inactive: 1.76.

For `C[C@]12CC[C@@H]3c4ccc(OC(=O)N(CCCl)CCCl)cc4CC[C@H]3[C@@H]1CC[C@@H]2OP(=O)(O)O` [Estramustine phosphate sodium], the “EEF2K protein level normalised to actin” value is inactive: 1.12.

For the compound `O=C(O)c1nn(Cc2ccc(Cl)cc2Cl)c2ccccc12` [Lonidamine], the “EEF2K protein level normalised to actin” value was inactive: 1.88.

With `C[C@]12CCC(=O)C(O)=C1CC[C@@H]1[C@@H]2CC[C@]2(C)C(=O)CC[C@@H]12` [Formestane], the “EEF2K protein level normalised to actin” value is inactive: 1.

With `CCC1=C[C@H]2CN3CCc4c([nH]c5ccccc45)[C@](C(=O)OC)(C2)[C@H]13` [Catharanthine], the “EEF2K protein level normalised to actin” value is inactive: 0.68.

As for `Cn1c(CCCC(=O)O)nc2cc(N(CCCl)CCCl)ccc21` [Bendamustine HCl], the “EEF2K protein level normalised to actin” value was inactive: 1.13.

On to `Cn1cc(C2=C(c3cn(C4CCN(Cc5ccccn5)CC4)c4ccccc34)C(=O)NC2=O)c2ccccc21`, for which the “EEF2K protein level normalised to actin” value is inactive: 1.96.

Consider `COC(=O)C[C@](O)(CCC(C)(C)O)C(=O)O[C@@H]1C(OC)=C[C@]23CCCN2CCc2cc4c(cc2[C@H]13)OCO4` [Harringtonine], for which the “EEF2K protein level normalised to actin” value is inactive: 3.24.

On to `O=P1(NCCCl)OCCCN1CCCl` (stereo unspecified) [Ifosfamide], for which the “EEF2K protein level normalised to actin” value was inactive: 0.7.

Consider `O=P1(N(CCCl)CCCl)NCCCO1` (stereo unspecified) [Cyclophosphamide Monohydrate], for which the “EEF2K protein level normalised to actin” value is inactive: 3.17.

In the case of `O=C(O)C1C2CCC(O2)C1C(=O)O` (stereo unspecified) [Sodium Demethylcantharidate], the “EEF2K protein level normalised to actin” value was inactive: 0.61.
